This is an account of results in patent US9458195B2 (Ipsen Pharma S.A.S., priority 2005, dated 2016).

The nature of this data set: general procedure: Fmoc solid-phase peptide synthesis; Rink Amide MBHA resin (0.58 mmol/g); Wang resin for C-terminal OH; MBHA resin (0.91 mmol/g) for Boc chemistry; DIC/HOBt, double-coupling with HBTU/HOBt/DIEA; HBTU/DIEA (Boc). As to conditions: whole synthesis, scale of the general procedure 0.035 mmol, 0.20 mmol.

Bridges are numbered along the chain shown (N, C = ends). [ ]: non-standard residue; d: D form. 1Nal = N[C@@H](Cc1cccc2ccccc12)C(=O)O; 2Nal = N[C@@H](Cc1ccc2ccccc2c1)C(=O)O; d2Nal = N[C@H](Cc1ccc2ccccc2c1)C(=O)O; hLeu = CC(C)CC[C@H](N)C(=O)O; Nle = CCCC[C@H](N)C(=O)O; Ahx = NCCCCCC(=O)O; GABA = NCCCC(=O)O

Consider “Ac-Nle-c(Pen-D-Ala-His-D-Phe-Arg-Trp-Pen)-NH2”, for which the “purity (crude or final not stated)” value worked out at 99.9%.

Regarding “Ac-Nle-c(Cys-D-Ala-His-D-Phe-Arg-Trp-Pen)-NH2”, the “purity (crude or final not stated)” value is 99.9%.

As for Ac-FCH[dF]RW[GABA]C-NH2 (disulfide 2-8), the “purity (crude or final not stated)” value came to 95.2%.

Consider “Ac-Arg-c(Asp-His-D-Phe-Arg-Trp-Ala-Lys)-NH2”, for which the “purity (crude or final not stated)” value turned out to be 99.0%.

Take “Ac-Nle-c(Cys-D-Abu-His-D-Phe-Arg-Trp-Cys)-NH2”: the “purity (crude or final not stated)” value was found to be 99.9%.

For “Ac-Nle-c(Asp-His-D-Phe-Arg-D-Trp-Aha-Lys)-NH2”, the “purity (crude or final not stated)” value came out at 98%.

Consider “Ac-Nle-c(D-Cys-D-Ala-His-D-Phe-Arg-Trp-Cys)-NH2”, for which the “purity (crude or final not stated)” value turned out to be 81%.

As for “Ac-[Nle]CH[dF]RW[Ahx]C-NH2 (disulfide 2-8)”, the “purity (crude or final not stated)” value is 98%.

Take “Ac-D-Arg-c(Asp-His-D-Phe-Arg-Trp-Ala-Lys)-NH2”: the “purity (crude or final not stated)” value stood at 98.0%.

“Ac-Nle-c(Cys-His-D-Phe-Arg-D-Trp-β-Ala-Cys)-NH2”: the “purity (crude or final not stated)” value is given as 99.9%.

On to “Ac-Nle-c(Cys-Aib-His-D-Phe-Arg-Trp-Cys)-NH2”, for which the “purity (crude or final not stated)” value was determined as 80%.

As for “Ac-Nle-c(D-Cys-Ala-His-D-Phe-Arg-Trp-Cys)-NH2”, the “purity (crude or final not stated)” value was 93%.

Regarding “Ac-[Nle]DH[dF]R[dW][dA]K-NH2 (lactam 2-8)”, the “purity (crude or final not stated)” value was 97%.

In the case of “Ac-Nle-c(D-Cys-β-Ala-His-D-Phe-Arg-Trp-D-Cys)-NH2”, the “purity (crude or final not stated)” value is given as 92%.

For the substance “Ac-Nle-c(Cys-D-Ala-His-D-Phe-Arg-Trp-Cys)-OH”, the “purity (crude or final not stated)” value was 99.9%.

Consider “Ac-Nle-c(Cys-D-Tle-His-D-Phe-Arg-Trp-Cys)-NH2”, for which the “purity (crude or final not stated)” value came out at 96.5%.

Consider “Ac-Nle-c(D-Cys-Ala-His-D-Phe-Arg-Trp-D-Cys)-NH2”, for which the “purity (crude or final not stated)” value worked out at 65%.

For the substance “Ac-Nle-c(Cys-D-Leu-His-D-Phe-Arg-Trp-Cys)-NH2”, the “purity (crude or final not stated)” value is 97.4%.

As to “Ac-[Nle]C[dA]H[d2Nal]R[2Nal]C-NH2 (disulfide 2-8)”, the “purity (crude or final not stated)” value was determined as 99.1%.

For the substance “Ac-Nle-c(Cys-His-D-Phe-Arg-D-Trp-D-Ala-Cys)-NH2”, the “purity (crude or final not stated)” value amounted to 99.9%.

On to “Ac-Nle-c(Cys-D-Glu-His-D-Phe-Arg-Trp-Cys)-NH2”, for which the “purity (crude or final not stated)” value is listed as 99.9%.

“Nle-c(Cys-His-D-Phe-Arg-Trp-Apn-Cys)-NH2”: the “purity (crude or final not stated)” value came out at 98.5%.

For Ac-[hLeu]DH[dF]R[dW]AK-NH2 (lactam 2-8), the “purity (crude or final not stated)” value came to 93.8%.

With “Ac-Nle-c(Cys-β-Ala-His-D-Phe-Arg-Trp-D-Cys)-NH2”, the “purity (crude or final not stated)” value amounted to 94%.

In the case of “Ac-[Nle]C[dA]H[dF]R[1Nal]C-NH2 (disulfide 2-8)”, the “purity (crude or final not stated)” value was found to be 96.6%.

On to “Ac-Nle-c(Asp-His-D-Phe-Arg-Trp-β-Ala-Lys)-NH2”, for which the “purity (crude or final not stated)” value stood at 96.4%.

“Ac-Nle-c(Cys-D-Ala-His-D-2-Nal-Arg-Trp-Cys)-NH2”: the “purity (crude or final not stated)” value came out at 96.1%.

As to “Ac-Nle-c(Asp-His-D-Phe-Arg-Trp-A6c-Lys)-NH2”, the “purity (crude or final not stated)” value is 96%.

Take “Ac-Nle-c(Asp-His-D-2-Nal-Arg-Trp-βAla-Lys)-NH2”: the “purity (crude or final not stated)” value worked out at 99.99%.

Take “Ac-[Nle]C[dA]H[dF]RWAC-NH2 (disulfide 2-9)”: the “purity (crude or final not stated)” value stood at 95.3%.

On to Ac-[Nle]D[dA]H[dF]RWK-NH2 (lactam 2-8), for which the “purity (crude or final not stated)” value is recorded as 96.2%.

Regarding Ac-LDH[dF]R[dW]AK-NH2 (lactam 2-8), the “purity (crude or final not stated)” value came out at 98.6%.

As to “D-Phe-c(Cys-His-D-(Et)Tyr-hArg-Bip-β-Ala-D-Cys)-Thr-NH2”, the “purity (crude or final not stated)” value is on record as 99%.

As for “Ac-Nle-c(Cys-β-Ala-His-D-Phe-Arg-Trp-Cys)-NH2”, the “purity (crude or final not stated)” value was 91%.
